# Data reported in patent publication US10111937B2, “Method of reducing accumulation of intracellular tingible body macrophages” (THE REGENTS OF THE UNIVERSITY OF MICHIGAN, priority 2008, dated 2018).
# Tested on: MDCK cells
# Conditions: 1 or 7 days of exposure, FIG. 10B
# Protocol: LPLA2 activity was measured as the transacylation of N-acetylsphingosine. […] The major cellular phospholipids were assayed following 1 or 7 days of exposure to the CAD.
smiles,measurement,value
CCCCc1oc2ccccc2c1C(=O)c1cc(I)c(OCCN(CC)CC)c(I)c1 [amiodarone],"cell phospholipids, most notably PC and PE",time dependent increase in cell phospholipids
